# Measurements: patent US20060198832A1, “Peptide drugs for chronic lymphocytic leukemia (CLL) and other cancers” (priority 2004, published 2006)
# By UniProt entry, the sequences of proteins in these tests, tags left out. Residues count along the entry.
# UniProt P10415, residues 1-205: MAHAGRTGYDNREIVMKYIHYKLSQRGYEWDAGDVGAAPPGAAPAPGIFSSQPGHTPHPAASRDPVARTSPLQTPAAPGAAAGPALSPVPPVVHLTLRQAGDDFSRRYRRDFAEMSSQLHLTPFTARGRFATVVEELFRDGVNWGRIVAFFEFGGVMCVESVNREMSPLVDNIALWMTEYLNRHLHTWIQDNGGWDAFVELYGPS
# Results are given in words; binding and its absence hold for the method and conditions named. Some entries that bind do so weakly or less than the wild type.
# Biological target: GST-Bcl2(1-205; Santa Cruz Biotechnology) (UniProt P10415)
# Test: competition ELISA: peptide in solution with GST-Bcl2(1-205), plate-bound biotinylated Bad peptide
row,binding,Binder
1,binds,NLWAAQRYGRELRRMSDEFVDSFKK [wild type BAD peptide (SEQ ID NO: 1)]
2,binds,NLWAAQRYGRELRRMADEFVDAFKK [modified BAD peptide 2Ser/Ala (SEQ ID NO: 2)]
